Results are given in words; binding and its absence hold for the method and conditions named. Some results given as binding are weak or reduced against the parent protein; the word gives no strength.

By UniProt entry, the sequences of proteins in these tests, tags left out. Residues count along the entry.
UniProt P02769, residues 25-607: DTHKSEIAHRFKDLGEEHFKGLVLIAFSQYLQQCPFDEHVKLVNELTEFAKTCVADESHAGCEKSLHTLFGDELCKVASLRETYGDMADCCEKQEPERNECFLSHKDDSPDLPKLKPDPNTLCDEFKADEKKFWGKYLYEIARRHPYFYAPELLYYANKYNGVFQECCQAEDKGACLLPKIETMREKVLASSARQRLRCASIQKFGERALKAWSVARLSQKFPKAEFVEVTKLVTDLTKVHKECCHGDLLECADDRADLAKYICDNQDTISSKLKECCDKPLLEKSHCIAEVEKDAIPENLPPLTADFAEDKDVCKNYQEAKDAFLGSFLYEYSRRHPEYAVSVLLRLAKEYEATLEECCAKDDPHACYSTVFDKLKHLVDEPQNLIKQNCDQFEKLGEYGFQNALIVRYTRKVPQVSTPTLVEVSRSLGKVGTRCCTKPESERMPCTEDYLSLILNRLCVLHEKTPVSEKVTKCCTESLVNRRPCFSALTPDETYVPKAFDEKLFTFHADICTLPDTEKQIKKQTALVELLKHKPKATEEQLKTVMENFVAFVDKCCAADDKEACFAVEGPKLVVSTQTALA

Experiment [1] deals with T1, recombinant PN (rPN) (UniProt Q15063).
T1 sequence: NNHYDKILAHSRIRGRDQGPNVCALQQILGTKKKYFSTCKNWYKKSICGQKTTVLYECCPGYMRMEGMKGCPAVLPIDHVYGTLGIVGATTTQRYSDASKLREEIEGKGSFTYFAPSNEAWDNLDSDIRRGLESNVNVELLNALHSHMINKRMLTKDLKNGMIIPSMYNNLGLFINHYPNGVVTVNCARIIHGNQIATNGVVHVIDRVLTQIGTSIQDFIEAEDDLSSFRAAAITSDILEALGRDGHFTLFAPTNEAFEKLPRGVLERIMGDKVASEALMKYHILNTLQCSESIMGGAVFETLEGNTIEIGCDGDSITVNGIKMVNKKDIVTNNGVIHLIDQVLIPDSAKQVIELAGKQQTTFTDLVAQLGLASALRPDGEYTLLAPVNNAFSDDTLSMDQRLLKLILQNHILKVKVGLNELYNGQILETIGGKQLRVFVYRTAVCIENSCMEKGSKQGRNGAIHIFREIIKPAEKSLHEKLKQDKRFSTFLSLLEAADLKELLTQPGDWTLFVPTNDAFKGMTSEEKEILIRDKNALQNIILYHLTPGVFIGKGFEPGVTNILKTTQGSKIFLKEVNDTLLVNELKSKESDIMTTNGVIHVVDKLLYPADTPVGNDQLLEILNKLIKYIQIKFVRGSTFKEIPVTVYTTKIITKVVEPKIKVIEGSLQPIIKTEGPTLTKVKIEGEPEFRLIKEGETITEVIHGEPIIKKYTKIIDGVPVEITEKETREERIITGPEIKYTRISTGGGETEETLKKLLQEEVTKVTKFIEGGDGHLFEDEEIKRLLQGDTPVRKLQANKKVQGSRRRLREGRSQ
In words: far-Western, overlay or dot blot; 500 ng rPN or BSA in 1 ul spotted on nitrocellulose, blocked with 5% BSA; selected or blank phage (10^12 pfu in 50 ul) at 4 °C overnight; detected with anti-M13 antibody-HRP and ECL; both purified.

In experiment [2] the target is bovine serum albumin (bovine) (UniProt P02769). Description: ITC; MicroCal PEAQ-ITC; 700 nM rPN (or BSA) and 100 nM plain anti-PN peptide in 50 mM Tris, 150 mM NaCl, pH 7.5, in syringe and cell compartments; both purified. (In general: In ITC the heat of successive injections is recorded.)

B1: selected phage clone displaying … (peptide)
peptide: TFATHGKHWAAP
As for B1, the binding result in experiment [1] is “binds”.

B2: plain anti-PN peptide (peptide)
peptide: TFATHGKHWAAP
Take B2: the binding entry in experiment [2] is “no binding (tested: 700 nM)”.

Values taken from paper PMC7807878, “Development of an engineered peptide antagonist against periostin to overcome doxorubicin resistance in breast cancer” (BMC Cancer, 2021).
